Experiment [1] has as its target T1, 3×Flag-tagged R2D2 (residues 1–311) (Drosophila) (UniProt Q9VLW8).
T1 sequence: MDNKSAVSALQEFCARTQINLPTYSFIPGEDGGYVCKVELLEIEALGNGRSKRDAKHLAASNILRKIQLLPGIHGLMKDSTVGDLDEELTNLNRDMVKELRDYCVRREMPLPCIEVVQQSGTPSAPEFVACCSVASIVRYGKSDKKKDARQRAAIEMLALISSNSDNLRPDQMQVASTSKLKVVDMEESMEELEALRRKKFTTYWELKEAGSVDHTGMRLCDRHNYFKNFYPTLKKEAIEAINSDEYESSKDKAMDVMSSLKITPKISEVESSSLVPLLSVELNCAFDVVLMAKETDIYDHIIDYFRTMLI
As to the kind of experiment: cryo-EM structure; Dicer-2–R2D2 co-purified from Sf9, mixed 1:2 with let-7 siRNA duplex and purified by gel filtration; 30 mM Hepes-KOH pH 7.4, 100 mM potassium acetate, 2 mM magnesium acetate, 1 mM DTT, 0.02% glycerol; 3.3 Å; both purified. On the technique in general: In gel filtration, larger molecules generally elute earlier.

By UniProt entry, the sequences of proteins in these tests, tags left out. Where a name states a change or a piece, a line headed by the entry shows the natural chain unless it says otherwise. Chains listed by the source or under a name are the forms on record and can include a tag or linker.
UniProt A1ZAW0: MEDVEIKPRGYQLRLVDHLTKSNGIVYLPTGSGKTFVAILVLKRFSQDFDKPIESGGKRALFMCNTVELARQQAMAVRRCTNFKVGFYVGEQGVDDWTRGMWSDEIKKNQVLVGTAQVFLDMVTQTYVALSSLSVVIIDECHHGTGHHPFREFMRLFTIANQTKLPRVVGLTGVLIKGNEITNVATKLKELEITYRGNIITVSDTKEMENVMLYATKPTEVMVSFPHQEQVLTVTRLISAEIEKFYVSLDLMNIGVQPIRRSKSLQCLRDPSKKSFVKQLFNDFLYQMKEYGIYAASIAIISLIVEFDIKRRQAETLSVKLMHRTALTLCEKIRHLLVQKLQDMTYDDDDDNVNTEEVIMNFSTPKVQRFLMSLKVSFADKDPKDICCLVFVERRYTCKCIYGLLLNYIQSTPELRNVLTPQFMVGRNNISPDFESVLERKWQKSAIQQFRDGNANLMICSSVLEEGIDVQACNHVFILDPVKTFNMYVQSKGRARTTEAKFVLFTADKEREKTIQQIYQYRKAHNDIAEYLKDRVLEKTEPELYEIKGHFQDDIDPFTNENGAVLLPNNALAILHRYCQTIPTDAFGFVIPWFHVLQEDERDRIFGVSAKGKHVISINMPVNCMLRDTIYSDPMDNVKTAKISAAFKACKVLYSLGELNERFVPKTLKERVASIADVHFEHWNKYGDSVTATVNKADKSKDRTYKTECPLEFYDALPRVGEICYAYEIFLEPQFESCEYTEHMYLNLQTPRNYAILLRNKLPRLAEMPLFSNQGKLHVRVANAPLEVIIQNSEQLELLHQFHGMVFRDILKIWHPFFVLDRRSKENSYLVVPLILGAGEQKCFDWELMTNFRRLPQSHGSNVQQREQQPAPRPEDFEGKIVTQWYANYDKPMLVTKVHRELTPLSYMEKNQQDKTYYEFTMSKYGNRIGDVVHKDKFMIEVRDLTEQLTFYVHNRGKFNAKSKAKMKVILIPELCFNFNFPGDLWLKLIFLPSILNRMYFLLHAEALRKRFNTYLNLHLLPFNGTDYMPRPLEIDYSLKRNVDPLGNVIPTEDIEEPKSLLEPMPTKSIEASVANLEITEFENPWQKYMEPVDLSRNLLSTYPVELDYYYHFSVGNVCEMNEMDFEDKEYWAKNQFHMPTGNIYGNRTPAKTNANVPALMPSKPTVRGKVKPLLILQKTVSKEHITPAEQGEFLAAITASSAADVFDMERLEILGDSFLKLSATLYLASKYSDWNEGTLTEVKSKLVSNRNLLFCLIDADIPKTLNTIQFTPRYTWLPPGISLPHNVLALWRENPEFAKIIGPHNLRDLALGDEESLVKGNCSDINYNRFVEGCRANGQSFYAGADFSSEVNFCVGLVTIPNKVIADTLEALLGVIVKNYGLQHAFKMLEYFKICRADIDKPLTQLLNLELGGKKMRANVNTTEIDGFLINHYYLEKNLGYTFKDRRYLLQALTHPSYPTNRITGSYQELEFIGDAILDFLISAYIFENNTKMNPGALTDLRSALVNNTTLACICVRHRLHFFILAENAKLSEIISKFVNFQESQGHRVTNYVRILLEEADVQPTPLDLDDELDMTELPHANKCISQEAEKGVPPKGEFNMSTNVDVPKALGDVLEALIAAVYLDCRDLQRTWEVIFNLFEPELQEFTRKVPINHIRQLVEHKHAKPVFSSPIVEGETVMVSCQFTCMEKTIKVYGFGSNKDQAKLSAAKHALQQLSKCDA
8×His-tagged Dicer-2 Δ1082–1115 (E1081-GGGS-G1116 mutant, truncated central linker) (A1ZAW0, form named): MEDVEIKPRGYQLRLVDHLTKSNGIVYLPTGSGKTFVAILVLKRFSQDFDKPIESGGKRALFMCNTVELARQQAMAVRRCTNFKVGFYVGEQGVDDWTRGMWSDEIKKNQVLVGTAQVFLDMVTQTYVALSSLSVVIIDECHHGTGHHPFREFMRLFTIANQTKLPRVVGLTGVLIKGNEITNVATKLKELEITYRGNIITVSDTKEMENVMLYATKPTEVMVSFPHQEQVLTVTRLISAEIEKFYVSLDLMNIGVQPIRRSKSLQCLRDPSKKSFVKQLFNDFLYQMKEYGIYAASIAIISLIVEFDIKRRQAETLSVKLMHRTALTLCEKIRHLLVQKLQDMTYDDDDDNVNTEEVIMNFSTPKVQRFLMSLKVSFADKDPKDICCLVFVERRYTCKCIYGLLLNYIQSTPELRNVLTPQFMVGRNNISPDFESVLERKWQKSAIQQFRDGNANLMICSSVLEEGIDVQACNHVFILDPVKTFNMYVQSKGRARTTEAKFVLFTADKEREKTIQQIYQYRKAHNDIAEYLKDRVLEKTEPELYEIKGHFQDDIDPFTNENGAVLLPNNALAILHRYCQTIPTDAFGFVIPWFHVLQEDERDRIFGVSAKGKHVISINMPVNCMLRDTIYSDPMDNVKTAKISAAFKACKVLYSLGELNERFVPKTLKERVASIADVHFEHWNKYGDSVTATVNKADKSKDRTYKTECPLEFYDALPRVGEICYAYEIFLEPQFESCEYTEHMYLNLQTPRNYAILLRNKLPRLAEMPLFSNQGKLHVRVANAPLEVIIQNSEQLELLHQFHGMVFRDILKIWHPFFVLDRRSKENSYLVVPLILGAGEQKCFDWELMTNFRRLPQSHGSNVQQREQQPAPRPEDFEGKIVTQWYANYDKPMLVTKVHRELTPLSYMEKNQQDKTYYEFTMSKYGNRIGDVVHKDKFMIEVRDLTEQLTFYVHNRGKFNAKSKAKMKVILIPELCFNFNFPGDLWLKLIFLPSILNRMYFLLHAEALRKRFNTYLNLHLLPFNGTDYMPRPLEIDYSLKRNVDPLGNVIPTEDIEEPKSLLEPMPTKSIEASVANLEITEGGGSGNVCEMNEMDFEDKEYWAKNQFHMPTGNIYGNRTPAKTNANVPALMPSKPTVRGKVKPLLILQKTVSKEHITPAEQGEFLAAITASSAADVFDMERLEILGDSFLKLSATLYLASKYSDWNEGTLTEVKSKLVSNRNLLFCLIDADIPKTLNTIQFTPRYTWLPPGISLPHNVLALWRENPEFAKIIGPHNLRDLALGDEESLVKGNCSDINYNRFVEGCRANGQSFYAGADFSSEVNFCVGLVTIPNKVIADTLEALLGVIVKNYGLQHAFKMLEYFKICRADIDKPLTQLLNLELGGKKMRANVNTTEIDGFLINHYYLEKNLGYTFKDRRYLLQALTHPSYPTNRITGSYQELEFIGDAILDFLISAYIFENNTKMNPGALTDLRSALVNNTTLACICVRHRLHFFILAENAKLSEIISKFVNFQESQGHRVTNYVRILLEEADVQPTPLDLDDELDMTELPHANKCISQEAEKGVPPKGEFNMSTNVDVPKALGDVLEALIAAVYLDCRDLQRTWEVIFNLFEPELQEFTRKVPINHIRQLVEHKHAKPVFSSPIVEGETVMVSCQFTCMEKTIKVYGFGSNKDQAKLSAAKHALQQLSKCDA

Experiment [2] addresses T1, 3×Flag-tagged R2D2 (residues 1–311) (Drosophila). The experiment in a line: pull-down; 8×His–Dicer-2 (wild type or mutant) and 3×Flag–R2D2 co-expressed in Sf9; lysate on anti-Flag M2 magnetic beads 1 h; wash with 800 mM NaCl, 1% Triton-X 100; western blot with anti-Flag and anti-Dicer-2 antibodies; n = 3. A general note: A western blot detects proteins with antibodies after separation by electrophoresis.

The target is the same in experiment [3]. The experiment in a line: cryo-EM structure; Dicer-2–R2D2 heterodimer without RNA, co-purified from Sf9; 30 mM Hepes-KOH pH 7.4, 100 mM KCl, 2 mM MgCl2, 1 mM DTT, 0.02% glycerol; 3.3 Å; both purified.

No constants are given. Whether binding was seen depends on the method and setting. For some of these results: In cells and extracts the contact can be indirect. Some results given as binding are weak or reduced against the parent protein; the word gives no strength. Where a sequence is shown, tags or fusion partners need not be part of it.

“8×His-tagged Dicer-2 (residues 1–1722), wild type (from UniProt A1ZAW0 1-1722) (enzyme)”: the binding result in experiment [1] and in experiment [2] was “binds” throughout.

With “Dicer-2 (residues 1–1722), 8×His–GFP tag removed by TEV protease (from UniProt A1ZAW0 1-1722) (enzyme)”, the binding result in experiment [3] is “binds”.

Consider “8×His-tagged Dicer-2 Δ1082–1115 (E1081-GGGS-G1116 mutant, truncated central linker) (from UniProt A1ZAW0 1-1081; A1ZAW0 1116-1722) (enzyme)”, for which the binding result in experiment [2] is “binds”.

The record behind these values is paper PMC9279153, “Structure of the Dicer-2–R2D2 heterodimer bound to a small RNA duplex”.
